PubChem BioAssay AID652259, Drosophila RNAi Screening Center | 2013
The deposit covers about 22,000 reagents; shown is a random part of those with a known target gene and a result. Over the whole deposit, 233 (1.1%) got an active call. 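Light values are raw, unnormalised plate reads; the ratio scores behind the reporter calls were not deposited.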 A plus sign joins genes that one reagent is predicted to hit. The record does not give: the amount of reagent, the time to read-out, the dose of the treatment.

- Test: 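Genome-wide hunt for genes that control Wingless pathway activity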 (primary screen)
- System: Drosophila clone 8 imaginal disc epithelial cells
- Knock-down reagent: long dsRNA against Drosophila genes
- Treatment: pathway stimulated by co-transfected Wingless expression plasmid
- Measurement: 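Firefly luciferase from a tcf-site Wingless reporter, measured alongside co-transfected Renilla luciferase that tracks transfection; pathway stimulated by a Wingless plasmid; the firefly-to-Renilla ratio is not deposited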
- Direction: firefly reporter light: higher = more Wg reporter light, before normalisation; Renilla control light: higher = more transfected or surviving cells
- Rule for the call: 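a knock-down is a candidate when at least two out of four statistical tests show it departing from its plate mean; one test alone signals a weak candidate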
- Calls: active = candidate regulator (raises or lowers reporter); inactive = not a candidate

predicted target,DRSC id,"reporter change call, replicate 1","firefly reporter light, replicate 1","firefly reporter light, replicate 2","Renilla control light, replicate 1","Renilla control light, replicate 2",call
CG14275,DRSC02379,,2396,7715,1056,3313,inactive
CG17107,DRSC02575,,2939,9744,1482,4107,inactive
CG17107,DRSC22627,,4.19e5,4.46e5,1.41e5,1.35e5,inactive
CG7810,DRSC03072,,8832,,4613,,inactive
Hsp70Bb + Hsp70Ba + Hsp70Bc + 1 more,DRSC21247,,14939,,5352,,inactive
Hsp70Bb + Hsp70Ba + Hsp70Bc + 1 more,DRSC21248,,17340,,6661,,inactive
CG10911,DRSC06008,,7160,,2507,,inactive
CG7448 (retired record),DRSC11828,,7996,,3480,,inactive
CG7448 (retired record),DRSC22485,,5.40e5,5.88e5,2.58e5,2.75e5,inactive
Apc,DRSC14114,,7830,,3399,,inactive
Arpc3A,DRSC15596,,16695,,3053,,inactive

Just “Renilla control light, replicate 1”, for 3 of the entries above:
CG7448 (retired record) [DRSC11828] = 3480
CG7448 (retired record) [DRSC22485] = 2.58e5
Apc [DRSC14114] = 3399

Next reagents:
predicted target,DRSC id,"reporter change call, replicate 1","firefly reporter light, replicate 1","firefly reporter light, replicate 2","Renilla control light, replicate 1","Renilla control light, replicate 2",call
CG42694,DRSC03955,,15656,,8290,,inactive
gt,DRSC18782,Wg reporter activity raised,47265,,5244,,active
CG42355,DRSC07967,,2272,,1672,,inactive
GlcAT-S,DRSC02731,,7237,,2368,,inactive
sens-2,DRSC02136,,3425,8025,1554,2178,inactive
sens-2,DRSC02613,,3536,7754,1131,1210,inactive
sens-2,DRSC21374,,6.44e5,6.08e5,95894,95744,inactive
Or82a,DRSC11996,,3782,,1497,,inactive
Tb,DRSC15815,,8906,,2716,,inactive
Mob3,DRSC02791,,3200,4779,1044,2147,inactive
CG14265,DRSC18591,,23739,,23352,,inactive
CG10919,DRSC14283,,17760,,4813,,inactive
M6,DRSC11869,,10912,,4552,,inactive
CG32591,DRSC19063,,3219,,1108,,inactive
Rpn7,DRSC16841,,1877,2538,534,1003,inactive
TTLL1A,DRSC20121,,1392,5108,776,2068,inactive
aos,DRSC11323,,5333,,2544,,inactive
CG15233,DRSC04967,,11433,,3793,,inactive
